Test results reported in patent US20100223839A1, “SYSTEMS AND PROCESSES FOR PRODUCING BIO-FUELS FROM LIGNOCELLULOSIC MATERIALS” (WASHINGTON STATE UNIVERSITY, priority 2009, published 2010).
The name of at least one read-out is uncertain.

System: Saccharomyces cerevisiae
Experiment: Toxic effect of selected bio-oil model compounds on yeast growth (inhibition rate)
Type: cell-based
Set-up: unit not given here
Text: The nature and the range of lethal concentrations of many of these toxic compounds was not well known. Thus, we carried out tests with model compounds to identify which of them were toxic to yeasts.
The toxic effects of selected bio-oil compounds (acetic acid, propanoic acid, cyclopentanone, 2-furaldehyde, furfuryl alcohol, phenol, eugenol, acetol, 2-(5H)-furanone, stilbene, vanillin, syringaldehyde, o-cresol) on Saccharomyces cerevisiae were studied.

[1] = compound at 25% of CFBO (concentration found in bio-oils; Mallee fast pyrolysis oil, 500° C.)
[2] = compound at 50% of CFBO (concentration found in bio-oils; Mallee fast pyrolysis oil, 500° C.)
[3] = compound at 75% of CFBO (concentration found in bio-oils; Mallee fast pyrolysis oil, 500° C.)
[4] = compound at 100% of CFBO (concentration found in bio-oils; Mallee fast pyrolysis oil, 500° C.)

SMILES | inhibition rate [1] | inhibition rate [2] | inhibition rate [3] | inhibition rate [4]
C=CCc1ccc(O)c(OC)c1 [Eugenol] | 97.04 | 97.22 | 96.64 | 97.04
Oc1ccccc1O [Pyrocatechol] | 84.53 | 90.48 | 91.67 | 92.10
COc1cc(C=O)cc(OC)c1O [Syringaldehyde] | 71.68 | 79.95 | 81.54 | 81.99
Cc1ccccc1 [Toluene] | −0.72 | 1.00 | 1.66 | 2.09
